# Data published in patent US20250327074A1 (SHAOXING INSTITUTE, ZHEJIANG UNIVERSITY, priority 2024, published 2025).
# Some results were stated once for a whole list of compounds, not compound by compound. For at least one compound, name, drawing or mass did not settle the structure.
# Tested on: FLucY255ACG/K529TCG mutant
# Experiment: FLuc dual caged UAA decaging luminescence assay
# Type: cell-based
# Details: dual incorporation of ONBY with TCOK/PABK; live cells
# Text: To established a method for orthogonal activation control of proteins, two caged UAAs are incorporated site-specifically into the active pocket or adjacent sites of target proteins through the dual rare codon recoding strategy, wherein steric hindrance leads to the protein inactivation, followed by protein activation through photochemical or chemical decaging strategies. The TCG/ACG dual recoding system decodes TCG/ACG sites as serine/threonine in the absence of UAAs. During the screening of FLuc, the K529 and Y255 site are identified with minimal background upon serine incorporation and threonine incorporation respectively, which were subsequently used for dual caged UAA incorporation. Using the FLucY255ACG/K529TCG mutant as an example, the TCG recoding system decoding ONBY, the ACG recoding system decoding TCOK/PABK, and reporter genes were co-transfected into cells, followed by luminescence assay to evaluate protein activation.
row,Compound,protein activation through photochemical or chemical decaging
1,N[C@@H](Cc1ccc(OCc2ccccc2[N+](=O)[O-])cc1)C(=O)O [ONBY],over 2500 fold
2,N[C@@H](CCCCNC(=O)OC1/C=C/CCCCC1)C(=O)O (some centres unmarked) [TCOK],over 2500 fold
